Measurements as given in publication PMC11150407.
Results are given in words; binding and its absence hold for the method and conditions named. Binding seen in cells or lysates may run through a third protein. Binding can be weak; no strength is given.

Sequences of proteins named here, by UniProt entry; tags and fusion partners are left off. A change or cut given only in a name is not applied to a line headed by its entry.
UniProt Q03112: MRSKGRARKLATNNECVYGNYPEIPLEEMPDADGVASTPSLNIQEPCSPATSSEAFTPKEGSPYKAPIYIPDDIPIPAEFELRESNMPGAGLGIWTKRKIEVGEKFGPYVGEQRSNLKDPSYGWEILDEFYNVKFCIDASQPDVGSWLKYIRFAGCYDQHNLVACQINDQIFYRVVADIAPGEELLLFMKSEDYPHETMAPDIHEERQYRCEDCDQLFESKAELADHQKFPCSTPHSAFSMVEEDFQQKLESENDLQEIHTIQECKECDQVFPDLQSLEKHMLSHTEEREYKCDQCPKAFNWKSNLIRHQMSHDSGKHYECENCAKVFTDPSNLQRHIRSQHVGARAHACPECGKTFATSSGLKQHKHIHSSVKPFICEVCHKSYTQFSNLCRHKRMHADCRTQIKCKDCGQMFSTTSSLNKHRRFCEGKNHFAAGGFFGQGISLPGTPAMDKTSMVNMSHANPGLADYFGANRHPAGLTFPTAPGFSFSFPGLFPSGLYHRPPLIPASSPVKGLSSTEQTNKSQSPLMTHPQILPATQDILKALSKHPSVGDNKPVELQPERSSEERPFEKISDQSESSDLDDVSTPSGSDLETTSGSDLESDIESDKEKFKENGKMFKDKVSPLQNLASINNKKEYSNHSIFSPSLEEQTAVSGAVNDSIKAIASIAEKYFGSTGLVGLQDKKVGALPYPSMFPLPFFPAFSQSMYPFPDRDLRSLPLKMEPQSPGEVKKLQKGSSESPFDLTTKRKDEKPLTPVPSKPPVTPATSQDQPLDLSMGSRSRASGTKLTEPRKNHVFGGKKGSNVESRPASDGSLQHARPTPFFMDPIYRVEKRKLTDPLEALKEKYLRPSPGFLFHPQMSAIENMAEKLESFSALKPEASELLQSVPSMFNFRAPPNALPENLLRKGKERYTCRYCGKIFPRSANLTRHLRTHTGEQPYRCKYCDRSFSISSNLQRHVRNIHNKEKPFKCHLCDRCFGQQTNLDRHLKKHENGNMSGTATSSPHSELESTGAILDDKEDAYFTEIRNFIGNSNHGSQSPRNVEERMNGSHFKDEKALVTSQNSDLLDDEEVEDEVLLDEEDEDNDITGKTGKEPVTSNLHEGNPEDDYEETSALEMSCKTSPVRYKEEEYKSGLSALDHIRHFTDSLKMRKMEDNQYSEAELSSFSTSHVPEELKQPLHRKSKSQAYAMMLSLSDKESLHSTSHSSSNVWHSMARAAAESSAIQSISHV

Biological target: ecotropic viral integration site-1 (EVI1/MECOM) (human (endogenous in HNT34, UCSD/AML1 and PDLX_PR#003 cells)) (UniProt Q03112)
Assay: co-IP; endogenous proteins, HNT34 lysate (Cell Lysis Buffer II); overnight with anti-EVI1 (C50E12), anti-PA2G4 (Proteintech 15348-1-AP) or normal rabbit IgG, 1 ug/mg; Dynabeads protein G 2 hr at 4 C

- binding: binds
B1: proliferation-associated 2G4 (PA2G4) protein (protein, UniProt Q9UQ80 1-394)
chain: MSGEDEQQEQTIAEDLVVTKYKMGGDIANRVLRSLVEASSSGVSVLSLCEKGDAMIMEETGKIFKKEKEMKKGIAFPTSISVNNCVCHFSPLKSDQDYILKEGDLVKIDLGVHVDGFIANVAHTFVVDVAQGTQVTGRKADVIKAAHLCAEAALRLVKPGNQNTQVTEAWNKVAHSFNCTPIEGMLSHQLKQHVIDGEKTIIQNPTDQQKKDHEKAEFEVHEVYAVDVLVSSGEGKAKDAGQRTTIYKRDPSKQYGLKMKTSRAFFSEVERRFDAMPFTLRAFEDEKKARMGVVECAKHELLQPFNVLYEKEGEFVAQFKFTVLLMPNGPMRITSGPFEPDLYKSEMEVQDAELKALLQSSASRKTQKKKKKKASKTAENATSGETLEENEAGD
